Results are given in words; binding and its absence hold for the method and conditions named. Binding seen in cells or lysates may run through a third protein. These calls come from enrichment with a bait or labelling near it, and not all partners need be listed. No binding means not detected with the bait. For some assays here: Where a sequence is shown, tags or fusion partners need not be part of it. One block for each molecule: values may come before it.
What was measured:
[1] = biological target: GST-tagged F-BAR domain of PSTPIP1 (aa 1-262) (UniProt O43586); experiment: affinity purification with mass spectrometry; GST-tagged bait on glutathione-sepharose beads; osteoclast lysate pre-incubated with glutathione-sepharose beads 1 h at 4°C, then 1 h with the bait at 4°C; washed 4 times with lysis buffer; SDS-PAGE; semi-quantitative mass spectrometry by MS2 spectral counting; only the target purified
full-length GST-PSTPIP2 = biological target: T1, full-length GST-PSTPIP2 (UniProt Q99M15); experiment: as above
T1 sequence: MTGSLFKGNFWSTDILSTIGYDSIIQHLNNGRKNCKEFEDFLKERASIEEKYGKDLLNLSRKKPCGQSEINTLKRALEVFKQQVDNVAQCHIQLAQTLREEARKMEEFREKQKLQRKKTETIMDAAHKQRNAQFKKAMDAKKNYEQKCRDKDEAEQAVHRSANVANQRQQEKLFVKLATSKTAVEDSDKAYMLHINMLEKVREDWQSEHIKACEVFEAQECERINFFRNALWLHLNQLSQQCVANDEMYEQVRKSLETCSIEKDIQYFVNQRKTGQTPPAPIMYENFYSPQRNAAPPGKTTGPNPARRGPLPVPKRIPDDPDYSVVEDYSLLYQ

The chains behind the UniProt entries cited, without tags or fusion partners. Residues count along the entry.
UniProt O43586, residues 1-262: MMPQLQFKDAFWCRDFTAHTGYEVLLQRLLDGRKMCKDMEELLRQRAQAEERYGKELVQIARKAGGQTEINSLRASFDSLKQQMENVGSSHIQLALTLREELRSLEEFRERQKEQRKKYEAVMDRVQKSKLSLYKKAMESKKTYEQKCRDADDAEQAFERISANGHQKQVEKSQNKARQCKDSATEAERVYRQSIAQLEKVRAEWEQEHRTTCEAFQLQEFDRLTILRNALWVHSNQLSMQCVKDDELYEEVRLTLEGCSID
UniProt P35991: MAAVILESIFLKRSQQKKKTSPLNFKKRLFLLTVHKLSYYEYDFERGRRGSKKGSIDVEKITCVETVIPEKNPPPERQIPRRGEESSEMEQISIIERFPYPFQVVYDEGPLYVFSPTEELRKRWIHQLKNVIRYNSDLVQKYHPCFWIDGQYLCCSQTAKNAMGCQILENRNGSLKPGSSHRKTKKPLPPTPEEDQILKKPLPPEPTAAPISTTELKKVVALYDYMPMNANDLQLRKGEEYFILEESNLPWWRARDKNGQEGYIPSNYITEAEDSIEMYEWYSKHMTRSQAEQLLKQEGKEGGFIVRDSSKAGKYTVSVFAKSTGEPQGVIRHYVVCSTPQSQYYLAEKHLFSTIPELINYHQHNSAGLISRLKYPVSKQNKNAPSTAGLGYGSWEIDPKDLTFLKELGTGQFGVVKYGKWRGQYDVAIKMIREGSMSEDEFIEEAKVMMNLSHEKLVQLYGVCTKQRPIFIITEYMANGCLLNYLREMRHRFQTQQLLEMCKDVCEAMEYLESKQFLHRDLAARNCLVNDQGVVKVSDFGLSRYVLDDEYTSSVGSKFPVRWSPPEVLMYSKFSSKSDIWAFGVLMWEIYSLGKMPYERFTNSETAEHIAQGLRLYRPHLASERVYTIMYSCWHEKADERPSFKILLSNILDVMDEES
UniProt P29352: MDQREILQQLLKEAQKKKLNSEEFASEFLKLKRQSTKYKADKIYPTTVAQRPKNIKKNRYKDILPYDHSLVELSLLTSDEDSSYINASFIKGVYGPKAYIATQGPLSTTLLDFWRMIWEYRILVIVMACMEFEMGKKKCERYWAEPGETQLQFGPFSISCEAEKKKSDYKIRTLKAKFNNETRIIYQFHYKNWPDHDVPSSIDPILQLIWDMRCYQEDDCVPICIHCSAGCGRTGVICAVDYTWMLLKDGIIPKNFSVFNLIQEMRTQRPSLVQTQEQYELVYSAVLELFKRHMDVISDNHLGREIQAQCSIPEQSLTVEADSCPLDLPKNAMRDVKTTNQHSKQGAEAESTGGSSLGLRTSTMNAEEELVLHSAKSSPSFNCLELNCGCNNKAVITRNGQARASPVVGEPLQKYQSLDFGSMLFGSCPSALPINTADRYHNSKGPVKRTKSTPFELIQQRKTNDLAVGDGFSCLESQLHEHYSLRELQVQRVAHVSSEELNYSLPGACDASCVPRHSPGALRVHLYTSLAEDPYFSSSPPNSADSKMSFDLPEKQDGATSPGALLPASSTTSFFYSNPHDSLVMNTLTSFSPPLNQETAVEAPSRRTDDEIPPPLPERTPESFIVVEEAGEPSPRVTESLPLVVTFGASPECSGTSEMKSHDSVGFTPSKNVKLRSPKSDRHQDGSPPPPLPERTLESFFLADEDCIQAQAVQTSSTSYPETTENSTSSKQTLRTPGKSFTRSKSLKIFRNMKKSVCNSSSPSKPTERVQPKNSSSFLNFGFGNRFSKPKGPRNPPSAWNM
UniProt Q9JKF1: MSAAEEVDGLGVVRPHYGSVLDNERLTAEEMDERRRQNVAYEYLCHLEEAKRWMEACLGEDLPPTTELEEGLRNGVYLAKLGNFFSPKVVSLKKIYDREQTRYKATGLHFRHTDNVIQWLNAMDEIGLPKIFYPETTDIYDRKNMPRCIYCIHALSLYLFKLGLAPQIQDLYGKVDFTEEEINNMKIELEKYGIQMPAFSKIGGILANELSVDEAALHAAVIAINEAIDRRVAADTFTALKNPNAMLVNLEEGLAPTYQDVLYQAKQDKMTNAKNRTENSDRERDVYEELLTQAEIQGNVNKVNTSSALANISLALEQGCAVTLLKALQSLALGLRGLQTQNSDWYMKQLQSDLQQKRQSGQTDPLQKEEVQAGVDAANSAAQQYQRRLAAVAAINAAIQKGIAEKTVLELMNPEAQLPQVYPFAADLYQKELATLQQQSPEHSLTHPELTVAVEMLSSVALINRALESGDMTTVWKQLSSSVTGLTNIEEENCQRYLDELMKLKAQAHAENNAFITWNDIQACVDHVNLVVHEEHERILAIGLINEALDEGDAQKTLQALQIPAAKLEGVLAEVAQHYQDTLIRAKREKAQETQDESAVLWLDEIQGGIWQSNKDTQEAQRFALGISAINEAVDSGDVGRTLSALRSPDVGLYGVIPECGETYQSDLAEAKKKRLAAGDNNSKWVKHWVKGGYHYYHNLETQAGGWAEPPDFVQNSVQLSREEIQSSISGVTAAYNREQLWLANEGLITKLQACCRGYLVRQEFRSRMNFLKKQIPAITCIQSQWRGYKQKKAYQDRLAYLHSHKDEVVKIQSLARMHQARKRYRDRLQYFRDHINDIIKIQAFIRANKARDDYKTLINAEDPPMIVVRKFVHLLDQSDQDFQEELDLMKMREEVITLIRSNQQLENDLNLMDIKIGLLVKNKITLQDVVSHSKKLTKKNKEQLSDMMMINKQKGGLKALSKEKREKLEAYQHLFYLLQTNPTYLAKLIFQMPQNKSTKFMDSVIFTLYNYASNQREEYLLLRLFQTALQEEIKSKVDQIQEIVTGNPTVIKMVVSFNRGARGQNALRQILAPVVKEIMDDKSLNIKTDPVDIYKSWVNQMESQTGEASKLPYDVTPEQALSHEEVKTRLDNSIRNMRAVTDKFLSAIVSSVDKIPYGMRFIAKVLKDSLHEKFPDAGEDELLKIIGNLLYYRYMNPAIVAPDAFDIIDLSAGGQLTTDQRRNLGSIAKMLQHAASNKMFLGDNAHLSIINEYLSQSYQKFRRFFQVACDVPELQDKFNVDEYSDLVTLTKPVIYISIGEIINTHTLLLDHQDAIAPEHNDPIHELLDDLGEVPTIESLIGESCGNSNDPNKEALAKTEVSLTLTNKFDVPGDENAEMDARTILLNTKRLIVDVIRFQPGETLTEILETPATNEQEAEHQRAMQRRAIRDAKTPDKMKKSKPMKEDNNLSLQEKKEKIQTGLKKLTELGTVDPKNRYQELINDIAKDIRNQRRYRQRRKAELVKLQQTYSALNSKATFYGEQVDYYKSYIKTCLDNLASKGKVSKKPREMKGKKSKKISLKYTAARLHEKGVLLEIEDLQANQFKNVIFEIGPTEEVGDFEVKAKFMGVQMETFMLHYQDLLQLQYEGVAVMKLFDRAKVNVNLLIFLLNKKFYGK
UniProt P26039: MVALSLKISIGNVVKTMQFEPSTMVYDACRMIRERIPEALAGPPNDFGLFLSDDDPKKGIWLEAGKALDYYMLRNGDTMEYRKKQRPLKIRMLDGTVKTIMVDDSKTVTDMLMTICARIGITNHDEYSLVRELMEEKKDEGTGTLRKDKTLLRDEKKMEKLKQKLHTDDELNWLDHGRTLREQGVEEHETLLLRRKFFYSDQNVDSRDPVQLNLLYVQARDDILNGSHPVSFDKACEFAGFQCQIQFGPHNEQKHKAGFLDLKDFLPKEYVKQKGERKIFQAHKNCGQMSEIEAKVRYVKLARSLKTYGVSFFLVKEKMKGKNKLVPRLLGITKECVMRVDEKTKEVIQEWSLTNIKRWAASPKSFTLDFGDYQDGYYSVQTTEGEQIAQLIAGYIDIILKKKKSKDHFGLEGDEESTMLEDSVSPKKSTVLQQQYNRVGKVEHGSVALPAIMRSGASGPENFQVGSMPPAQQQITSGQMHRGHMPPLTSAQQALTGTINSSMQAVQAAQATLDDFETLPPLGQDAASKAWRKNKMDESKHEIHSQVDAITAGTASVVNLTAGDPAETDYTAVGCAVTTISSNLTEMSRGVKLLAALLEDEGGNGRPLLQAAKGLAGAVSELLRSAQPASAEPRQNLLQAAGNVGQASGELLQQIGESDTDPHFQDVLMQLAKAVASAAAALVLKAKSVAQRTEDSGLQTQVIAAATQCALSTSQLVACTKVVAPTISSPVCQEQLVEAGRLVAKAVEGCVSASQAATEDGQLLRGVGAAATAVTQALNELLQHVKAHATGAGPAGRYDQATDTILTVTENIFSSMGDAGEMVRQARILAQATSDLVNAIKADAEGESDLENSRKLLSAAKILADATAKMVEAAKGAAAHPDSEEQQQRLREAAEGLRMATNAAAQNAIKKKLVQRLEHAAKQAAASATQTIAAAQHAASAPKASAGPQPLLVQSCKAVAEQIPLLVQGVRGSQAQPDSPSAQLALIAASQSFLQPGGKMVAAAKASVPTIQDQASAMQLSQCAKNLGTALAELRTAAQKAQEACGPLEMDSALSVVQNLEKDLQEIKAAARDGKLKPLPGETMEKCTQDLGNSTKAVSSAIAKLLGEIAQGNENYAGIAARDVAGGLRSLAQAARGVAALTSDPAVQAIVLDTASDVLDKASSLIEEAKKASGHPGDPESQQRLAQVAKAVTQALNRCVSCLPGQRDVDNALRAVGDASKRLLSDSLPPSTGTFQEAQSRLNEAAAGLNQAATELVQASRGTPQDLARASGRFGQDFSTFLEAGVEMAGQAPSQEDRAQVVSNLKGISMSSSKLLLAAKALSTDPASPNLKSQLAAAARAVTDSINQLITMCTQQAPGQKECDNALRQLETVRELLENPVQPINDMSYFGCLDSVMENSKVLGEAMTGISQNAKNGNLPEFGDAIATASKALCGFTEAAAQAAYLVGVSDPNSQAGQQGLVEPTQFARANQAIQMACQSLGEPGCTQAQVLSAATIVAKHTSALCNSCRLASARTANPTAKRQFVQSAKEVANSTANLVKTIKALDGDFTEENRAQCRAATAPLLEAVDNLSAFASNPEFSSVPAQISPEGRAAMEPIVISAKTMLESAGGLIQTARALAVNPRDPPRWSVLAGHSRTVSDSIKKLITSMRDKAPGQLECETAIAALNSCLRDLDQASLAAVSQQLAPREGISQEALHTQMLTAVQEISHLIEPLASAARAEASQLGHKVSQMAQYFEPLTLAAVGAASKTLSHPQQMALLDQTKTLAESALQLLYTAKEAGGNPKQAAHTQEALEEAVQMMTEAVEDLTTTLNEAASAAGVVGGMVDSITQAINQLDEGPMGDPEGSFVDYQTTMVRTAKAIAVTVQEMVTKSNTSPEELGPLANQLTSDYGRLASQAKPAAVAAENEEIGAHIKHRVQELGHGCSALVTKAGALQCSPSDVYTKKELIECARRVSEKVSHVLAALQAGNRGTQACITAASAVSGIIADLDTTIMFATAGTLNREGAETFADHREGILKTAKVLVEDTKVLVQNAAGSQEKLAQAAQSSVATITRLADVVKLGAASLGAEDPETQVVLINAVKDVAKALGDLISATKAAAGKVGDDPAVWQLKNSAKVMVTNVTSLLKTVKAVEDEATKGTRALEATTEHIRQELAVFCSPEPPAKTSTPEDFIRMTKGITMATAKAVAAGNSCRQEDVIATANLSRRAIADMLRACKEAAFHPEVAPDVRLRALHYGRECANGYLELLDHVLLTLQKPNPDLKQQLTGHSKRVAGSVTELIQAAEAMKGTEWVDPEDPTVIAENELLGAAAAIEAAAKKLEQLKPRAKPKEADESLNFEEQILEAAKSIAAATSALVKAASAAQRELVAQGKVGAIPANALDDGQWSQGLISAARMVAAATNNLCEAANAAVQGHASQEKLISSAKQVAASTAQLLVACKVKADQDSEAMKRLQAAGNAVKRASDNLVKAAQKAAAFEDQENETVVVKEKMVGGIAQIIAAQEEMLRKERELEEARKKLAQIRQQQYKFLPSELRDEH

Molecule: Tyrosine-protein kinase BTK (from UniProt P35991 1-659) (enzyme)
binding [1]: binds

Molecule: Tyrosine-protein phosphatase non-receptor type 22 (from UniProt P29352 1-802) (enzyme)
binding [1]: binds
binding (full-length GST-PSTPIP2): binds

B1: ARF GTPase-activating protein GIT1 (protein, UniProt Q68FF6 1-770)
chain: MSRKGPRAEVCADCSAPDPGWASISRGVLVCDECCSVHRSLGRHISIVKHLRHSAWPPTLLQMVHTLASNGANSIWEHSLLDPAQVQSGRRKANPQDKVHPIKSEFIRAKYQMLAFVHKLPCRDDDGVTAKDLSKQLHSSVRTGNLETCLRLLSLGAQANFFHPEKGTTPLHVAAKAGQTLQAELLVVYGADPGSPDVNGRTPIDYARQAGHHELAERLVECQYELTDRLAFYLCGRKPDHKNGHYIIPQMADRSRQKCMSQSLDLSELAKAAKKKLQALSNRLFEELAMDVYDEVDRRENDAVWLATQNHSTLVTERSAVPFLPVNPEYSATRNQGRQKLARFNAREFATLIIDILSEAKRRQQGKSLSSPTDNLELSARSQSELDDQHDYDSVASDEDTDQEPLPSAGATRNNRARSMDSSDLSDGAVTLQEYLELKKALATSEAKVQQLMKVNSSLSDELRRLQREIHKLQAENLQLRQPPGPVPPPSLPSERAEHTLMGPGGSTHRRDRQAFSMYEPGSALKPFGGTPGDELATRLQPFHSTELEDDAIYSVHVPAGLYRIRKGVSASSVPFTPSSPLLSCSQEGSRHASKLSRHGSGADSDYENTQSGDPLLGLEGKRFLELSKEDELHPELESLDGDLDPGLPSTEDVILKTEQVTKNIQELLRAAQEFKHDSFVPCSEKIHLAVTEMASLFPKRPALEPVRSSLRLLNASAYRLQSECRKTVPPEPGAPVDFQLLTQQVIQCAYDIAKAAKQLVTITTREKKQ
binding [1]: binds

B2: Tyrosine-protein phosphatase non-receptor type 12 (enzyme, UniProt P35831 1-775)
chain: MEQVEILRRFIQRVQAMKSPDHNGEDNFARDFMRLRRLSTKYRTEKIYPTATGEKEENVKKNRYKDILPFDHSRVKLTLKTPSQDSDYINANFIKGVYGPKAYVATQGPLANTVIDFWRMIWEYNVVIIVMACREFEMGRKKCERYWPLYGEDPITFAPFKISCENEQARTDYFIRTLLLEFQNESRRLYQFHYVNWPDHDVPSSFDSILDMISLMRKYQEHEDVPICIHCSAGCGRTGAICAIDYTWNLLKAGKIPEEFNVFNLIQEMRTQRHSAVQTKEQYELVHRAIAQLFEKQLQLYEIHGAQKIADGNEITTGTMVSSIDSEKQDSPPPKPPRTRSCLVEGDAKEEILQPPEPHPVPPILTPSPPSAFPTVTTVWQDSDRYHPKPVLHMASPEQHPADLNRSYDKSADPMGKSESAIEHIDKKLERNLSFEIKKVPLQEGPKSFDGNTLLNRGHAIKIKSASSSVVDRTSKPQELSAGALKVDDVSQNSCADCSAAHSHRAAESSEESQSNSHTPPRPDCLPLDKKGHVTWSLHGPENATPVPDSPDGKSPDNHSQTLKTVSSTPNSTAEEEAHDLTEHHNSSPLLKAPLSFTNPLHSDDSDSDGGSSDGAVTRNKTSISTASATVSPASSAESACTRRVLPMSIARQEVAGTPHSGAEKDADVSEESPPPLPERTPESFVLADMPVRPEWHELPNQEWSEQRESEGLTTSGNEKHDAGGIHTEASADSPPAFSDKKDQITKSPAEVTDIGFGNRCGKPKGPREPPSEWT
binding [1]: binds
binding (full-length GST-PSTPIP2): binds

Now from value to molecule:

binding [1]: binds
Molecule: Microtubule-actin cross-linking factor 1 (from UniProt Q9QXZ0 1-7354)

binding [1]: binds
binding (full-length GST-PSTPIP2): binds
Molecule: Ras GTPase-activating-like protein IQGAP1 (from UniProt Q9JKF1 1-1657)

binding [1]: no binding
binding (full-length GST-PSTPIP2): binds
Molecule: Talin-1 (from UniProt P26039 1-2541)

binding [1]: binds
binding (full-length GST-PSTPIP2): no binding
Molecule: Tyrosine-protein phosphatase non-receptor type 6 (from UniProt P29351-1 1-595) (enzyme)

binding [1]: binds
B3: Myosin-If (protein, UniProt P70248 1-1099)
chain: MGSKERFHWQSHNVKQSGVDDMVLLSQITEDAIVRNLHKRFMDDYIFTYIGSVLISVNPFKQMPYFTDREIDLYQGAVQYEEPPHIYALTDNMYRNMLIDCENQCVIISGESGAGKTVAAKYIMGYISKVSGGGDKVQHVKDIILQSNPLLEAFGNAKTVRNNNSSRFGKYFEIQFSRGGEPDGGKISNFLLEKSRVVMQNENERNFHIYYQLLEGASQEQQQNLGIMSQDYYYYLNQSDTYKVEGTDDRSDFSETLSAMQVMGFRQACQQLVLQLVAGILHLGNISFCEEGNYARVESVDSLAFPAYLLGIDSGRLQEKLTSRKMDSKWGGRSESIDVTLNVEQAAYTRDALAKGLYARLFDFLVEAINRAMQKPQEEYSIGVLDIYGFEIFQKNGFEQFCINFVNEKLQQIFIELTLKAEQEEYVQEGIRWTPIEYFNNKIVCDLIENKLSPPGIMSVLDDVCATMHATGGGADQTLLQKLQAAVGTHEHFNSWSAGFVIHHYAGKVSYDVSGFCERNRDVLFSDLIELMQSSDQDFLRMLFPEKLNIDKKGRPSTAGSKIKKQANDLVSTLKKCTPHYIRCIKPNETKRPRDWEESRVKHQVEYLGLRENIRVRRAGFAYRRQFSKFLQRYAILTPETWPRWRGDERQGVQHLLRAVNMEPDQYQMGSTKVFVKNPESLFLLEEMRERKFDGFARTIQKAWRRHVAVRKYEEMREEASNILLNKKERRRNSINRNFVGNYLGLEERPELRQFLAKRERVDFADSVTKYDRRFKPIKRDLILTPKCVYVIGTEKVKRGPEKGLVREVLKKKLDIQALRGVSLSTRQDDFFILQEEAADTFLESIFKTEFVSLLCKRFEEAARRPLPLTFQDILQFRVKKKGWGGGGTRNVTFSAGQVNLAVLKAGGKTLTISLGDGLPKNSKPTRKGLAQGKPRRSAQAPTRAVPWASQGLNRNGATLFPRGEGPYTLEIYIWPQEFPEASTAIHLQPQDASRRPRARPPSEHSTEFLNVPDQGVAGMQRKRSIGQRPVPASRPKPQPRTHGPRCRALYQYIGQDVDELSFNVNEVIEILIEDSSGWWKGRLHGQEGLFPGNYVEKI

— PMC5070766
